We go through one molecule from publication PMC12037410, “Pharmacological targeting of BMAL1 modulates circadian and immune pathways” (Nature Chemical Biology, 2025).

Amino acid sequences for entries named in this document (tags omitted).
UniProt O00327: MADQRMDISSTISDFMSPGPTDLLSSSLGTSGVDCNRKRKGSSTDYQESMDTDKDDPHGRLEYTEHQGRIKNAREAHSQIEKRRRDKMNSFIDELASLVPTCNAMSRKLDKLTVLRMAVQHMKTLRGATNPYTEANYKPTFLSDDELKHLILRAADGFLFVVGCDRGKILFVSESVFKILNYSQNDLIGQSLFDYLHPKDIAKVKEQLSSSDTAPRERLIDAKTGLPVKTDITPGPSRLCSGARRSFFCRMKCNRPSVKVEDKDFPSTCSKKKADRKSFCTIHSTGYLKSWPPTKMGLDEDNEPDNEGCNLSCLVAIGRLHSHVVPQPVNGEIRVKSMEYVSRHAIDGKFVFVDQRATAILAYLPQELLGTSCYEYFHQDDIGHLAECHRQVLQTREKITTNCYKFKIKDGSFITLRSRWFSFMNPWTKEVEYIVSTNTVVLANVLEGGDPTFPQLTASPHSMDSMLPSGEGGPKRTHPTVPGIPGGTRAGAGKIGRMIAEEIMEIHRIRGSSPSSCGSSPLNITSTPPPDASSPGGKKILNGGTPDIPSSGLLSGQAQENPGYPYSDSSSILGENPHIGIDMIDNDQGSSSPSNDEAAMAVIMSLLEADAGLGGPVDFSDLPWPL

The experiment deals with Endogenous BMAL1 in U2OS cells (human (endogenous in U2OS)) (UniProt O00327). Briefly: affinity purification with mass spectrometry; RIME: U2OS cells treated with 100 uM CCM or 0.1% DMSO for 3 h and cross-linked in 1% formaldehyde; nuclear fraction lysed by sonication; anti-BMAL1 antibody or rabbit IgG on Protein A Dynabeads, overnight at 4 C; RIPA washes; on-bead digestion; label-free MS.

Results are given in words; binding and its absence hold for the method and conditions named. Binding seen in cells or lysates may run through a third protein. A yes stands for co-enrichment or nearness to the bait. Other partners may have been found.

B1: Endogenous CLOCK in U2OS cells (protein, UniProt O15516 1-846)
chain: MLFTVSCSKMSSIVDRDDSSIFDGLVEEDDKDKAKRVSRNKSEKKRRDQFNVLIKELGSMLPGNARKMDKSTVLQKSIDFLRKHKEITAQSDASEIRQDWKPTFLSNEEFTQLMLEALDGFFLAIMTDGSIIYVSESVTSLLEHLPSDLVDQSIFNFIPEGEHSEVYKILSTHLLESDSLTPEYLKSKNQLEFCCHMLRGTIDPKEPSTYEYVKFIGNFKSLNSVSSSAHNGFEGTIQRTHRPSYEDRVCFVATVRLATPQFIKEMCTVEEPNEEFTSRHSLEWKFLFLDHRAPPIIGYLPFEVLGTSGYDYYHVDDLENLAKCHEHLMQYGKGKSCYYRFLTKGQQWIWLQTHYYITYHQWNSRPEFIVCTHTVVSYAEVRAERRRELGIEESLPETAADKSQDSGSDNRINTVSLKEALERFDHSPTPSASSRSSRKSSHTAVSDPSSTPTKIPTDTSTPPRQHLPAHEKMVQRRSSFSSQSINSQSVGSSLTQPVMSQATNLPIPQGMSQFQFSAQLGAMQHLKDQLEQRTRMIEANIHRQQEELRKIQEQLQMVHGQGLQMFLQQSNPGLNFGSVQLSSGNSSNIQQLAPINMQGQVVPTNQIQSGMNTGHIGTTQHMIQQQTLQSTSTQSQQNVLSGHSQQTSLPSQTQSTLTAPLYNTMVISQPAAGSMVQIPSSMPQNSTQSAAVTTFTQDRQIRFSQGQQLVTKLVTAPVACGAVMVPSTMLMGQVVTAYPTFATQQQQSQTLSVTQQQQQQSSQEQQLTSVQQPSQAQLTQPPQQFLQTSRLLHGNPSTQLILSAAFPLQQSTFPQSHHQQHQSQQQQQLSRHRTDSLPDPSKVQPQ
Consider B1, for which the binding entry is recorded as “binds”.
